# Source: the supplement of paper PMC12889115
# This is one part of the list. These are raw signals, not scaled to a control.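 In the initial screen, polymyxin B was used at a concentration that permeabilizes Salmonella's outer membrane but not its inner membrane. Maximum growth was set by DMSO wells with or without polymyxin B. Since plates varied, data were ranked per plate, and compounds giving the lowest OD600 advanced as hits.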
# Tested on: Salmonella enterica serovar Typhimurium SL1344
# Test: bacterial growth OD600 after 18 h with compound and polymyxin B; higher = more bacterial growth (less inhibition)
# Conditions: 50 µM, Mueller-Hinton broth
smiles,measurement,setting,value
COC(=O)CCC(=O)N1CCC(C2CCN(CCc3ccccc3)C2)CC1 (configuration not stated),bacterial growth OD600,polymyxin B 0.75 µg/mL,0.733
O=C1N(Cc2cccc(F)c2F)CCCC1(O)CNC1CCCCC1 (configuration not stated),bacterial growth OD600,polymyxin B 1 µg/mL,0.992
CCCNC(=O)N1CCCC(N2CCN(Cc3ccc4c(c3)OCO4)CC2)C1 (configuration not stated),bacterial growth OD600,polymyxin B 1 µg/mL,0.872
COCCN(CC1CCCN(C2Cc3ccccc3C2)C1)C(=O)CN1CCCCC1 (configuration not stated),bacterial growth OD600,polymyxin B 1 µg/mL,0.79
Cc1ccc(C)c(OCc2cc(C(=O)NCc3n[nH]c4c3CCC4)no2)c1,bacterial growth OD600,polymyxin B 1 µg/mL,0.002
CN(Cc1nc2cc(Cl)ccc2[nH]1)Cc1nc(-c2ccc3c(c2)OCO3)no1,bacterial growth OD600,polymyxin B 1 µg/mL,0.761
CC1=C(C(=O)N2CCc3onc(-c4ccc5c(c4)OCO5)c3C2)OCCO1,bacterial growth OD600,polymyxin B 0.75 µg/mL,0.654
O=C(CCc1cnccn1)N1CCCC(CCc2ccc(F)c(F)c2)C1 (configuration not stated),bacterial growth OD600,polymyxin B 0.75 µg/mL,0.743
CN(Cc1nccs1)c1nc2nonc2nc1N1CCCCC1,bacterial growth OD600,polymyxin B 0.75 µg/mL,0.864
COCC1CCCCN1C(=O)c1csc2nc(-c3ccc(Cl)cc3)cn12 (configuration not stated),bacterial growth OD600,polymyxin B 0.75 µg/mL,0.511
CC(C)C(CO)Nc1ccc(-c2nc(Cc3ccccc3)no2)cn1 (configuration not stated),bacterial growth OD600,polymyxin B 1 µg/mL,0.587
COCC1CCCN(C(=O)c2cc(Cn3cnc4cc(C)c(C)cc43)[nH]n2)C1 (configuration not stated),bacterial growth OD600,polymyxin B 1 µg/mL,0.933
C=CC[C@@H]1CC=C[C@@H](C)N1C(=O)CC1(c2ccccc2)CC(=O)N(CCCOc2cccnc2)C1=O (some centres not stated),bacterial growth OD600,polymyxin B 0.75 µg/mL,0
FC(F)(F)c1cccc(N2CCN(C3CCCN(Cc4ccco4)C3)CC2)c1 (configuration not stated),bacterial growth OD600,polymyxin B 1 µg/mL,0.787
Cc1ccc2c(c1)CN(CC1CC1)CC(c1ccsc1)O2 (configuration not stated),bacterial growth OD600,polymyxin B 0.75 µg/mL,0.739
CN(C)CCC1CN(c2ccc3ccccc3n2)CCO1 (configuration not stated),bacterial growth OD600,polymyxin B 1 µg/mL,0.979
CC[C@H](C)[C@H](NC(=O)C1CC(Cc2ccc(F)cc2)=NO1)C(=O)OC (some centres not stated),bacterial growth OD600,polymyxin B 0.75 µg/mL,0.788
O=C(NCCC1=CCCCC1)C1CC12CCN(C(=O)c1cn3ccccc3n1)CC2 (configuration not stated),bacterial growth OD600,polymyxin B 0.75 µg/mL,0.98
COCCC(=O)N1CCCC1C(=O)Nc1ccc(-c2cc3ccccc3[nH]2)cc1 (configuration not stated),bacterial growth OD600,polymyxin B 0.75 µg/mL,0.722
CN(C(=O)c1ccn(C)n1)C(Cc1ccccc1)C1CCN(Cc2ccc(N3CCCC3)cc2)CC1 (configuration not stated),bacterial growth OD600,polymyxin B 0.75 µg/mL,0.794
Cc1cnccc1CNC(=O)CC(c1cccc(O)c1)c1cccc(Cl)c1 (configuration not stated),bacterial growth OD600,polymyxin B 1 µg/mL,0.723
CN(C)C(=O)c1ccc(N2CCC(NCCc3ccccc3C(F)(F)F)CC2)cc1,bacterial growth OD600,polymyxin B 0.75 µg/mL,0.823
C=C(C)CN(C)C(=O)Cc1c2c(n(Cc3ccccc3)c1C)CCCC2=O,bacterial growth OD600,polymyxin B 1 µg/mL,1.11
COC(=O)CNC(=O)c1coc(COc2cccc(F)c2F)n1,bacterial growth OD600,polymyxin B 0.75 µg/mL,0.864
CCn1cc(C(=O)NC2CCCN(CC3CCCCC3)C2)cn1 (configuration not stated),bacterial growth OD600,polymyxin B 1 µg/mL,0.994
COc1cc(CN2CCN(Cc3ccccc3C)CC2CCO)cc(OC)c1 (configuration not stated),bacterial growth OD600,polymyxin B 1 µg/mL,0.872
Cc1ccc(OCc2cc(C(=O)N3CCC(Cc4ccccc4F)CC3)no2)cn1,bacterial growth OD600,polymyxin B 1 µg/mL,0.686
CCOC(=O)C1(CCOc2ccccc2)CCN(C(=O)c2ccc3c(c2)OCCO3)CC1,bacterial growth OD600,polymyxin B 1 µg/mL,0.518
O=C(NCc1ccccn1)C1CCN(C2CCN(Cc3ccccc3)CC2)CC1,bacterial growth OD600,polymyxin B 1 µg/mL,0.91
COc1ccccc1-n1cc(CN2CCCC(CNC(=O)c3cc(C)on3)C2)cn1 (configuration not stated),bacterial growth OD600,polymyxin B 1 µg/mL,0.905
O=C1N(Cc2cccc(F)c2F)CCCC1(O)CNC1CCCCCC1 (configuration not stated),bacterial growth OD600,polymyxin B 1 µg/mL,0.942
CCC1CN(Cc2cc3ccccc3[nH]2)Cc2cc(OC)ccc2O1 (configuration not stated),bacterial growth OD600,polymyxin B 0.75 µg/mL,0.007

# Nothing new here: entries from further up.
smiles,measurement,setting,value
COC(=O)CCC(=O)N1CCC(C2CCN(CCc3ccccc3)C2)CC1 (configuration not stated),bacterial growth OD600,polymyxin B 0.75 µg/mL,0.733
O=C1N(Cc2cccc(F)c2F)CCCC1(O)CNC1CCCCC1 (configuration not stated),bacterial growth OD600,polymyxin B 1 µg/mL,0.992
